Source: patent US4622301A, “2-Oxocarboxylic acid reductase and its preparation” (BASF Aktiengesellschaft, priority 1983, dated 1986)
At least one structure is not confirmed: it was looked up by name or label, or the drawing left a doubt.

Legend:
[1] = test system: 2-oxocarboxylic acid reductase; test: Relative rates of reduction of 2-oxocarboxylic acids, enzyme from P. mirabilis; format: biochemical, Proteus mirabilis; settings: rate for phenylpyruvate taken as 1
[2] = test system: 2-oxocarboxylic acid reductase; test: Relative rates of reduction of 2-oxocarboxylic acids, enzyme from P. vulgaris; format: biochemical, Proteus vulgaris; settings: rate for phenylpyruvate taken as 1
Method: In an electrochemical cell, 25 ml of a solution of 100 mM potassium phosphate buffer at pH 7.0, 4 mM methylviologen and 40 mM phenylpyruvate were reduced with 0.5 mg of 2-oxoacid reductase according to Example 3 at a voltage of -700 mV, against a standard calomel electrode. The current of 5.8 mA decreased sharply after 9 hours. According to HPLC analysis, the reaction solution contained 88% of the phenyllactic acid expected. The solution was acidified to pH 1.8 with dilute sulfuric acid and then extracted with ether. […] A pure commercial preparation of (2S)-sodium phenyllactate gave a value of -21.4°, measured under the same conditions. (R)-mandelic acid and (R)-2-hydroxy-4-methylpentanoate were prepared by a similar method.
3-Oxocarboxylic acids and hydroxyacetone are not reduced.

SMILES | Relative rates (of reduction) [1] | Relative rates (of reduction) [2]
O=C(O)C(=O)CF [3-Fluoropyruvate] | 0.22 | 0.20
O=C(O)CCC(=O)C(=O)O [2-Oxoglutarate] | 0.78 | 0.62
